From PMC5065127 come the findings set out here.

The chains behind the UniProt entries cited, without tags or fusion partners.
UniProt Q8IXI2: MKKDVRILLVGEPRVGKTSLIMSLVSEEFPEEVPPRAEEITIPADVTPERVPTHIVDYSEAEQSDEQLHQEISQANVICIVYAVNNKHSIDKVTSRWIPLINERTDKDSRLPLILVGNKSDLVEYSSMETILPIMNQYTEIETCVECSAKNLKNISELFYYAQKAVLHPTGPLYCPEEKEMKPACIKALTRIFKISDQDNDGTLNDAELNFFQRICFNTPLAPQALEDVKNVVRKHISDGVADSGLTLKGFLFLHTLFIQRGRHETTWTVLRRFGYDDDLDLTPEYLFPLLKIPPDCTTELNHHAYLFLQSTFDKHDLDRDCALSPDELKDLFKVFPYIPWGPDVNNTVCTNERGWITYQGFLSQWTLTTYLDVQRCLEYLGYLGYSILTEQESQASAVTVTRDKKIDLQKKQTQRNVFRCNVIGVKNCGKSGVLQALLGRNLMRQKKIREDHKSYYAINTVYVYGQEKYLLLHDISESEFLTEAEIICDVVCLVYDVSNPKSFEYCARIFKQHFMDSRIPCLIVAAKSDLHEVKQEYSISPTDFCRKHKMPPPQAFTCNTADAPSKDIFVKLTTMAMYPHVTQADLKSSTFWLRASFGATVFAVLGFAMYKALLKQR

Holding throughout (test): co-IP; HEK293T cells co-expressing a Flag-tagged and an HA-tagged protein; precipitated with anti-HA or anti-Flag antibody; control IgG as negative control
In experiment [1] the target is T1, Flag-tagged Vimar (visceral mesodermal armadillo-repeats) (Drosophila) (UniProt A1Z6S7).
T1 sequence: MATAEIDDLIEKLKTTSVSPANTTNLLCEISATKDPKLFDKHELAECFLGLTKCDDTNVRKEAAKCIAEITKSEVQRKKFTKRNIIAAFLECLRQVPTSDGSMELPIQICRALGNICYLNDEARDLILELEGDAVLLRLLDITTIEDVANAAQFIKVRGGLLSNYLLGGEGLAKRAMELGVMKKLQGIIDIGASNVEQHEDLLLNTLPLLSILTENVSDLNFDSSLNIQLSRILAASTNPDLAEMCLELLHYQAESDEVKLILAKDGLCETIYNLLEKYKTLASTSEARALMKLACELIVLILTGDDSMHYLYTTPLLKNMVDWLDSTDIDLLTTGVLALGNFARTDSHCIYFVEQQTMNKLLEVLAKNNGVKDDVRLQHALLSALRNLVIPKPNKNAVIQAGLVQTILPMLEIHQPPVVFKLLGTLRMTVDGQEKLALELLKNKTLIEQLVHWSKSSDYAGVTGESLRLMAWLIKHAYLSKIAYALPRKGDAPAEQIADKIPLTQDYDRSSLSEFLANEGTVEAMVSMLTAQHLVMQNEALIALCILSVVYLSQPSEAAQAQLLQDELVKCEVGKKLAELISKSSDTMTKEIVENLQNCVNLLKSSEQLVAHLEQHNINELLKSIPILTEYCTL

Experiment [2] addresses T2, HA-tagged Miro25N (constitutively GDP-bound Miro mutant, T25N) (Drosophila) (UniProt Q8IMX7).
T2 sequence: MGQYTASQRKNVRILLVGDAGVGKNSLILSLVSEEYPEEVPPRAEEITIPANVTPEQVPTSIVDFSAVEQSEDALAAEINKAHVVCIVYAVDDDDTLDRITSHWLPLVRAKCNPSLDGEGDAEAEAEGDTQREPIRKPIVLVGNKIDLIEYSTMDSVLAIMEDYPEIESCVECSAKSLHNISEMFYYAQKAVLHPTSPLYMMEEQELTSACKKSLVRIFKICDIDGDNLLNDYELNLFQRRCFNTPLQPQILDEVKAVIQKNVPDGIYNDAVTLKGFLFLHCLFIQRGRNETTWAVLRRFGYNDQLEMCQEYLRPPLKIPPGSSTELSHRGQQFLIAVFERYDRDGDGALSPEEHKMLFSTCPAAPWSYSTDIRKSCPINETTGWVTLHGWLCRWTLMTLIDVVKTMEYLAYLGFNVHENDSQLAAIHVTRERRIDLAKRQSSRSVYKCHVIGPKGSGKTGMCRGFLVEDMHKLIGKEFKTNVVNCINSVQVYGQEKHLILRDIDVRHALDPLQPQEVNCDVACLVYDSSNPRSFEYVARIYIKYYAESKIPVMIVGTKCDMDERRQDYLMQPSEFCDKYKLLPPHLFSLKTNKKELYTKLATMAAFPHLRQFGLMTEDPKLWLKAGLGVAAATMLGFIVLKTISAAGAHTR

Experiment [3] deals with T3, HA-tagged Miro (Drosophila) (Drosophila) (UniProt Q8IMX7).
T3 sequence: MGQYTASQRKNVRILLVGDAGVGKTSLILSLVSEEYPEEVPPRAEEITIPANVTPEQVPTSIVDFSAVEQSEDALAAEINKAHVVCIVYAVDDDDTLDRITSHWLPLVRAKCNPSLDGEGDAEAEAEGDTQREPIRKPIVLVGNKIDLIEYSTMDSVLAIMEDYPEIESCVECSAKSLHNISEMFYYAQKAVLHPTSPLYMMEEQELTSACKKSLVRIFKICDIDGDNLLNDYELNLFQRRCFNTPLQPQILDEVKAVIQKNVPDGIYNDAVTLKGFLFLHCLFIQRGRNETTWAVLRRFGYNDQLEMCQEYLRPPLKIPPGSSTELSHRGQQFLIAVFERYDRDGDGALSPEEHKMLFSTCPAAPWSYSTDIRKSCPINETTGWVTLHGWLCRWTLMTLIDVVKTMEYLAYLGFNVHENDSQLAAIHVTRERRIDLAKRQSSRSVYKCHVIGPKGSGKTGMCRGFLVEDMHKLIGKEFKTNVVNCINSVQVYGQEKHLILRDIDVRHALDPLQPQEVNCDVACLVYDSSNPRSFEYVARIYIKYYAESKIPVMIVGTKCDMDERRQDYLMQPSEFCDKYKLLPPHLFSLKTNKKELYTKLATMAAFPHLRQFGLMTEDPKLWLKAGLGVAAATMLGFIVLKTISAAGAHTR

The target of experiment [4] is T4, HA-tagged Miro20V (constitutively GTP-bound Miro mutant, A20V) (Drosophila) (UniProt Q8IMX7).
T4 sequence: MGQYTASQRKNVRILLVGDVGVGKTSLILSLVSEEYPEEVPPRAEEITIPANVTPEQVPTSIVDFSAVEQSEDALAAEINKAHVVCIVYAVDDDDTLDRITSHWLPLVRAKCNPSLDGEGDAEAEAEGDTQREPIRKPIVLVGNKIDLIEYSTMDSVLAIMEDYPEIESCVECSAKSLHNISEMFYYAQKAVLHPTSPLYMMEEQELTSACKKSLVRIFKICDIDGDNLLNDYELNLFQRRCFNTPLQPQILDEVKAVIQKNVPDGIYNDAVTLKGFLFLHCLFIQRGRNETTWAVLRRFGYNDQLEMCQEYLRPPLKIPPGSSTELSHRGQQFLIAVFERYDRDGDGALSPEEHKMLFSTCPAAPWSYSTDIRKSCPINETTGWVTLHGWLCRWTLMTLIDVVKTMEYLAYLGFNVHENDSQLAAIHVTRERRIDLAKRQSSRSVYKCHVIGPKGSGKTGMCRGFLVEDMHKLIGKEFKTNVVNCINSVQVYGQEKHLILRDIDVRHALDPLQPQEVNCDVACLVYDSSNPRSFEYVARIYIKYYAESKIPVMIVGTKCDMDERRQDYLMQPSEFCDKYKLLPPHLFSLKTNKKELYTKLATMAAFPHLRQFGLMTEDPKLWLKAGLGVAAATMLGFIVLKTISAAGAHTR

In another experiment the target is HA-tagged Miro1 (UniProt Q8IXI2).

These are yes or no findings as the source states them, for the method shown. In cells and extracts the contact can be indirect. Some entries that bind do so weakly or less than the wild type. Where a sequence is shown, tags or fusion partners need not be part of it.

B1: HA-tagged Miro (Drosophila) (protein, UniProt Q8IMX7 1-652)
chain: MGQYTASQRKNVRILLVGDAGVGKTSLILSLVSEEYPEEVPPRAEEITIPANVTPEQVPTSIVDFSAVEQSEDALAAEINKAHVVCIVYAVDDDDTLDRITSHWLPLVRAKCNPSLDGEGDAEAEAEGDTQREPIRKPIVLVGNKIDLIEYSTMDSVLAIMEDYPEIESCVECSAKSLHNISEMFYYAQKAVLHPTSPLYMMEEQELTSACKKSLVRIFKICDIDGDNLLNDYELNLFQRRCFNTPLQPQILDEVKAVIQKNVPDGIYNDAVTLKGFLFLHCLFIQRGRNETTWAVLRRFGYNDQLEMCQEYLRPPLKIPPGSSTELSHRGQQFLIAVFERYDRDGDGALSPEEHKMLFSTCPAAPWSYSTDIRKSCPINETTGWVTLHGWLCRWTLMTLIDVVKTMEYLAYLGFNVHENDSQLAAIHVTRERRIDLAKRQSSRSVYKCHVIGPKGSGKTGMCRGFLVEDMHKLIGKEFKTNVVNCINSVQVYGQEKHLILRDIDVRHALDPLQPQEVNCDVACLVYDSSNPRSFEYVARIYIKYYAESKIPVMIVGTKCDMDERRQDYLMQPSEFCDKYKLLPPHLFSLKTNKKELYTKLATMAAFPHLRQFGLMTEDPKLWLKAGLGVAAATMLGFIVLKTISAAGAHTR
In the case of B1, the binding entry in experiment [1] is “binds”.

B2: Flag-tagged Vimar (visceral mesodermal armadillo-repeats) (protein, UniProt A1Z6S7 1-635)
chain: MATAEIDDLIEKLKTTSVSPANTTNLLCEISATKDPKLFDKHELAECFLGLTKCDDTNVRKEAAKCIAEITKSEVQRKKFTKRNIIAAFLECLRQVPTSDGSMELPIQICRALGNICYLNDEARDLILELEGDAVLLRLLDITTIEDVANAAQFIKVRGGLLSNYLLGGEGLAKRAMELGVMKKLQGIIDIGASNVEQHEDLLLNTLPLLSILTENVSDLNFDSSLNIQLSRILAASTNPDLAEMCLELLHYQAESDEVKLILAKDGLCETIYNLLEKYKTLASTSEARALMKLACELIVLILTGDDSMHYLYTTPLLKNMVDWLDSTDIDLLTTGVLALGNFARTDSHCIYFVEQQTMNKLLEVLAKNNGVKDDVRLQHALLSALRNLVIPKPNKNAVIQAGLVQTILPMLEIHQPPVVFKLLGTLRMTVDGQEKLALELLKNKTLIEQLVHWSKSSDYAGVTGESLRLMAWLIKHAYLSKIAYALPRKGDAPAEQIADKIPLTQDYDRSSLSEFLANEGTVEAMVSMLTAQHLVMQNEALIALCILSVVYLSQPSEAAQAQLLQDELVKCEVGKKLAELISKSSDTMTKEIVENLQNCVNLLKSSEQLVAHLEQHNINELLKSIPILTEYCTL
For the molecule B2, the binding entry in experiment [2], in experiment [3] and in experiment [4] was “binds” in each case.

B3: Flag-tagged RAP1GDS1 (protein, UniProt P52306 1-607)
chain: MDNLSDTLKKLKITAVDKTEDSLEGCLDCLLQALAQNNTETSEKIQASGILQLFASLLTPQSSCKAKVANIIAEVAKNEFMRIPCVDAGLISPLVQLLNSKDQEVLLQTGRALGNICYDSHEGRSAVDQAGGAQIVIDHLRSLCSITDPANEKLLTVFCGMLMNYSNENDSLQAQLINMGVIPTLVKLLGIHCQNAALTEMCLVAFGNLAELESSKEQFASTNIAEELVKLFKKQIEHDKREMIFEVLAPLAENDAIKLQLVEAGLVECLLEIVQQKVDSDKEDDITELKTGSDLMVLLLLGDESMQKLFEGGKGSVFQRVLSWIPSNNHQLQLAGALAIANFARNDANCIHMVDNGIVEKLMDLLDRHVEDGNVTVQHAALSALRNLAIPVINKAKMLSAGVTEAVLKFLKSEMPPVQFKLLGTLRMLIDAQAEAAEQLGKNVKLVERLVEWCEAKDHAGVMGESNRLLSALIRHSKSKDVIKTIVQSGGIKHLVTMATSEHVIMQNEALVALALIAALELGTAEKDLESAKLVQILHRLLADERSAPEIKYNSMVLICALMGSECLHKEVQDLAFLDVVSKLRSHENKSVAQQASLTEQRLTVES
For B3, the binding entry with HA-tagged Miro1 is reported as “binds”.
